# In PubChem BioAssay AID504444 (National Center for Advancing Translational Sciences (NCATS), 2011):
# About 7,500 (2.1%) of roughly 360,000 compounds were called active. This list was built around the results that the source calls inconclusive (neither active nor inactive); the mix of calls is not that of the screen. Calls follow the shape of the dose curve; as a rule, active = well fitted inhibition curve with a large enough effect; inconclusive = small, poorly fitted or top-dose-only effect, or effect the other way; inactive = flat fitted curve, though single readings scatter. Potencies beside an inconclusive call are fits to weak or partial responses and may not hold up.
# Test: Nrf2 qHTS screen for inhibitors; also: nearly all actives have a fitted effect of over 60% in size
# Settings: A549 ARE-Fluc reporter, luciferase luminescence, 18-24 h; series mostly up to 46 µM
# Method in brief: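 Nrf2 function is reported as luminescence of an ARE-controlled luciferase in A549 cells. Compounds were tested at several concentrations, and a CellTiter-Fluor read on the same wells flagged cytotoxicity.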
# Potency is read from the fitted curve at half-maximal effect.
row,SMILES,Potency
1,Clc1cccc(OCCN2CCN(CCOc3cccc(Cl)c3)CC2)c1,"inconclusive: 29.1 µM [falling, single point]"
2,O=C(OCC#CCSc1nnc(-c2cccc(F)c2)o1)c1ccc(F)cc1,inactive
3,CC(C)(C)OC(=O)N1CCC(c2c(C(=O)N3CCOCC3)cnn2-c2cccc(F)c2)CC1,"inconclusive: 3.66 µM [activator, partial curve, poor fit]"
4,NC(N)=S,inactive
5,Cc1nc(Cl)sc1C(=O)Nc1ccc(Cl)cc1,"inconclusive: 2.31 µM [activator, partial curve, poor fit]"
6,O=C(c1ccccc1)c1ccc(CN2C(=O)c3ccccc3C2=O)o1,inactive
7,OCCC1CN(Cc2cc3c(cc2Cl)OCO3)CCN1C1CCCCC1 (stereo unspecified),"inconclusive: 7.31 µM [activator, partial curve]"
8,O=C(CSc1nc2c(c(=O)[nH]1)CN(Cc1ccc3c(c1)OCO3)CC2)Nc1ccc(F)c(F)c1,"inconclusive: 13 µM [activator, partial curve]"
9,O=C(Oc1ccc(=O)n(-c2ccccc2)n1)c1ccc(Cl)cc1,inactive
10,CCC(=O)NC1(C(F)(F)F)C(=O)Nc2c1c(=O)[nH]c(=O)n2Cc1ccco1 (stereo unspecified),"inconclusive: 2.31 µM [activator, partial curve, poor fit]"
11,Cc1ccc(NC(=O)CS(=O)CC(=O)NC(C)CCc2ccco2)cc1Cl (stereo unspecified),inactive
12,Cc1ccc(Nc2nc3nonc3[nH]c2=O)cc1Cl,"inconclusive: 29.1 µM [falling, single point]"
13,COc1ccc(N2CCN(S(=O)(=O)CC34CCC(CC3=O)C4(C)C)CC2)cc1 (stereo unspecified),"inconclusive: 5.8 µM [falling, full curve]"
14,Cc1cc(N2CCN(S(=O)(=O)c3ccc(Cl)c(Cl)c3)CC2)c2ccccc2n1,active: 23.1 µM
15,Cc1cc(C)c(S(=O)(=O)N2CCCC(C(=O)NCCC3=CCCCC3)C2)c(C)c1 (stereo unspecified),"inconclusive: 29.1 µM [falling, single point]"
16,CCc1cccc(NC(=O)c2ccc(CNS(=O)(=O)c3ccc4c(c3)C(C)(C)C(=O)N4C)cc2)c1,active: 16.4 µM
17,O=[N+]([O-])c1cc(CN2CCN(c3ccccc3)CC2)c(O)c2ncccc12,active: 2.59 µM
18,Cc1ccc2c(c1)c1c3n2CCN(CC#N)C3CCC1 (stereo unspecified),"inconclusive: 0.326 µM [activator, full curve, poor fit]"
19,CCOC(=O)N1CCN(C(=O)CSCc2nc(-c3ccccc3C)oc2C)CC1,"inconclusive: 20.6 µM [falling, single point]"
20,O=C(Nc1nc(-c2ccccc2)cs1)Nc1ccc(F)cc1F,"inconclusive: 20.6 µM [falling, single point]"
21,CNC(=O)c1c(NC(NC(=O)c2ccco2)C(=O)c2ccc(Cl)cc2)sc2c1CCCC2 (stereo unspecified),"inconclusive: 29.1 µM [falling, single point]"
22,CC(=O)Oc1ccc(S(=O)(=O)c2ccc(OC(C)=O)cc2)cc1,"inconclusive: 5.17 µM [activator, single point]"

row,SMILES,Potency
1,O=C(C=NNc1ccccc1)c1ccccc1,"inconclusive: 11.6 µM [activator, partial curve]"
2,O=C(N/N=C/c1cccs1)c1ccc2c(c1)OCO2,"inconclusive: 6.51 µM [activator, partial curve, poor fit]"
3,Cc1ccc(C2C(C#N)=C(N)Oc3nc(-c4ccccc4)[nH]c32)o1 (stereo unspecified),"inconclusive: 36.6 µM [falling, partial curve, poor fit]"
4,CNc1nc(-c2ccc(S(=O)(=O)N3CCCCC3)cc2)cs1,"inconclusive: 25.9 µM [falling, single point]"
5,CC1CCN(c2ccc3c(c2)S(=O)(=O)c2cccc(C(=O)NC4CC4)c2C3=O)CC1,inactive
6,Cc1c(OCC(=O)C(C)(C)C)ccc2c(-c3ccccc3)cc(=O)oc12,"inconclusive: 29.1 µM [falling, single point]"
7,C[C@@]12C(=O)Nc3ccccc3C(=O)N1[C@H]1c3cc(Cl)ccc3OC[C@@H]1[C@@H]2c1ccccc1,"inconclusive: 20.6 µM [falling, single point]"
8,CCOc1c(Br)cc(CNC2CCCCCCC2)cc1OC,"inconclusive: 18.4 µM [falling, single point]"
9,O=C(CSc1ccc(-c2ccco2)nn1)Nc1ccccc1F,inactive
10,CCOC(=O)C1=CN(Cc2cccc(F)c2)S(=O)(=O)N(C)C1c1ccc(F)c(Cl)c1 (stereo unspecified),"inconclusive: 13 µM [falling, partial curve]"
11,O=C1C2C(C(=O)N1CCN1CCN(Cc3ccc([N+](=O)[O-])cc3)CC1)[C@H]1C=C[C@@H]2C1 (stereo partly specified),"inconclusive: 20.6 µM [falling, partial curve]"
12,CCN(CC)S(=O)(=O)c1cc(NC(=O)c2ccc(-n3cncn3)c([N+](=O)[O-])c2)ccc1C,active: 4.11 µM
13,CC1=C/C(=C/N(C)c2ccccc2)C(=O)S1,"inconclusive: 29.1 µM [activator, single point]"
14,CCN(CC)S(=O)(=O)c1cc(NC(=O)C(C)N2CCc3ccccc32)ccc1C (stereo unspecified),"inconclusive: 32.6 µM [falling, single point]"
15,CCOc1ccc(CCNC(=O)c2cc3sc(CC)cc3n2C)cc1OCC,active: 18.4 µM
16,Cc1ccc(S(=O)(=O)N2CCC(n3c(C)nc4cccnc43)CC2)c(C)c1,active: 9.2 µM
17,Cc1ccc(S(=O)(=O)c2cn(Cc3ccc(F)cc3)c3cc(N4CCCC4)c(F)cc3c2=O)cc1,"inconclusive: 29.1 µM [activator, single point]"
18,COc1ccc(/C=C/C(=O)NCC2COc3ccccc3O2)c(OC)c1 (stereo unspecified),"inconclusive: 3.26 µM [activator, full curve, poor fit]"
19,Cc1cccc(NC(=O)CN2CCN(C(=O)c3ccc(-c4nc5ccccc5s4)o3)CC2)c1C,"inconclusive: 29.1 µM [falling, single point]"
20,COc1cc(-c2noc(C)c2-c2ccc3[nH]ccc3c2)cc(OC)c1OC,"inconclusive: 29.1 µM [activator, partial curve, poor fit]"
21,O=C(NCc1ccccc1)N1CCCC1,"inconclusive: 1.64 µM [activator, partial curve, poor fit]"
22,Cc1ccccc1NC(=S)NC(=O)/C=C/c1ccco1,"inconclusive: 20.6 µM [falling, single point]"

# Part of the list above in order of SMILES length, high to low.
row,SMILES,Potency
6,O=C(c1ccccc1)c1ccc(CN2C(=O)c3ccccc3C2=O)o1,inactive
20,O=C(Nc1nc(-c2ccccc2)cs1)Nc1ccc(F)cc1F,"inconclusive: 20.6 µM [falling, single point]"
2,O=C(N/N=C/c1cccs1)c1ccc2c(c1)OCO2,"inconclusive: 6.51 µM [activator, partial curve, poor fit]"

# (list continues)

row,SMILES,Potency
1,COc1ccc(-c2ccc(-c3cc(=O)oc4c(C(C)C)ccc(C)c34)cc2)cc1,"inconclusive: 20.6 µM [falling, partial curve, poor fit]"
2,COc1ccc2[nH]cc(CCCN3C(=O)c4ccccc4C3=O)c2c1,"inconclusive: 2.31 µM [falling, partial curve, poor fit]"
3,O=C(Cc1cccc2ccccc12)Nc1ccc(OC(F)F)c(Cl)c1,inactive
4,O=S(=O)(Nc1ccc(Cc2ccncc2)cc1)c1ccc(Br)s1,"inconclusive: 29.1 µM [falling, single point]"
5,CC(=O)N(CCC(c1ccccc1)c1ccco1)Cc1cccs1 (stereo unspecified),"inconclusive: 20.6 µM [falling, single point]"
6,CCn1c(SCC(=O)Nc2ccccc2-c2ccccc2)nnc1-c1ccoc1C,"inconclusive: 20.6 µM [falling, single point]"
7,COCc1c(C#N)c(NCc2cc(OC)c(OC)c(OC)c2)nc(C)c1[N+](=O)[O-],"inconclusive: 25.9 µM [falling, partial curve, poor fit]"
8,COC(=O)c1cc(NC(=O)/C=C/c2ccc3c(c2)OCO3)cc(C(=O)OC)c1,"inconclusive: 0.82 µM [falling, partial curve, poor fit]"
9,COc1ccccc1-c1nc(-c2ccc(C)nc2OC)no1,"inconclusive: 23.1 µM [activator, partial curve, poor fit]"
10,c1ccc(N2CCN(c3ccccc3)C2c2cccs2)cc1,"inconclusive: 11.6 µM [activator, partial curve]"
11,C/C=C1\COC(C(=O)NCc2cccc(OC)c2OC)(C(F)(F)F)C=C1C=C1CCCCC1 (stereo unspecified),"inconclusive: 11.6 µM [falling, partial curve]"
12,COc1cc(OC)cc(-c2nc3cc(C)ccc3o2)c1,"inconclusive: 1.84 µM [activator, full curve]"
13,CCOC(=O)C1CCCN(C(=O)c2[nH]c3ccccc3c2Sc2ccc(Cl)cc2)C1 (stereo unspecified),"inconclusive: 16.4 µM [falling, partial curve]"
14,CC(C)C1N=C(c2ccc3c(c2)OCO3)CC(c2ccccc2O)N1 (stereo unspecified),inactive
15,CCc1ccc(C(=O)NCc2cccs2)s1,"inconclusive: 29.1 µM [activator, single point]"
16,Cc1sc(NC(=O)c2ccco2)nc1-c1ccccc1,"inconclusive: 1.03 µM [activator, full curve, poor fit]"
17,COc1ccccc1CNC(=O)C1CCN(S(=O)(=O)c2ccc3c(c2)CC(C)N3C(C)=O)CC1 (stereo unspecified),"inconclusive: 10.3 µM [falling, partial curve, poor fit]"
18,COc1ccc(CNC(=O)CCS(=O)(=O)c2ccc3c(c2)oc(=O)n3C)cc1,inactive
19,COC(=O)Nc1ccc(S(=O)(=O)N2CCCC(C(=O)N3CCCCC3)C2)cc1 (stereo unspecified),active: 16.4 µM
20,CCOc1cc(C2c3c(-c4ccc(Br)cc4)n[nH]c3C(=O)N2c2ccc(Cl)cc2)ccc1O (stereo unspecified),"inconclusive: 29.1 µM [falling, single point]"
21,COc1ccccc1CNC(=O)CCN1C(=O)COc2ccc(C)cc21,inactive
22,COc1cc(OC)cc(C(=O)NCC(=O)OCC(=O)/C=C2/N(C)c3ccccc3C2(C)C)c1,"inconclusive: 29.1 µM [falling, single point]"
